These are yes or no findings as the source states them, for the method shown. Some results given as binding are weak or reduced against the parent protein; the word gives no strength.
Experiments:
[1] = biological target: T1, HLA-E molecules expressed in PDX lung tumor tissue (model LU5139) (human) (UniProt P13747+P61769); test: LC/MS/MS against a synthetic peptide standard
[2] = biological target: T1, HLA-E molecules expressed in PDX lung tumor tissue (model LU5139) (human); test: LC/MS/MS of peptides eluted from HLA-E purified on a 4D12 column

Sequences of proteins named here, by UniProt entry; tags and fusion partners are left off. A change or cut given only in a name is not applied to a line headed by its entry.
UniProt P13747: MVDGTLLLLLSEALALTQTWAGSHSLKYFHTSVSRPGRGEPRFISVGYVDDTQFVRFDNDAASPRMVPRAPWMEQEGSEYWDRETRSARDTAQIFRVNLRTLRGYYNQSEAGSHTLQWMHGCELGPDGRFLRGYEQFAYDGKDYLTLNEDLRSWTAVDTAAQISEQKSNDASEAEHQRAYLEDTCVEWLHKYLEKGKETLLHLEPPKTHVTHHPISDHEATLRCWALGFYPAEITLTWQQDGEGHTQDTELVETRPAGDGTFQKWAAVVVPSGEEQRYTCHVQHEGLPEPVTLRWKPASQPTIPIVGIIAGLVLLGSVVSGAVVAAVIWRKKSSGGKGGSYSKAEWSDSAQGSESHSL
UniProt P61769: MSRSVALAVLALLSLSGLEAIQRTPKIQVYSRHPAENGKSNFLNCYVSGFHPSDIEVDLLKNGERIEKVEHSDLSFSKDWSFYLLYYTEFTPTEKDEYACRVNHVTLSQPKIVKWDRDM

B1: peptide GLADKVYFL (CAD protein) (peptide)
peptide: GLADKVYFL
B1 was tested, and the binding [1] was “binds” and the binding [2] was “binds”.

From patent US20200291116A1 (ABEXXA BIOLOGICS, published 2020)
